Assay [1] deals with T1, PCGF1 (of the immunoprecipitation with or without benzonase) (UniProt Q8R023).
T1 sequence: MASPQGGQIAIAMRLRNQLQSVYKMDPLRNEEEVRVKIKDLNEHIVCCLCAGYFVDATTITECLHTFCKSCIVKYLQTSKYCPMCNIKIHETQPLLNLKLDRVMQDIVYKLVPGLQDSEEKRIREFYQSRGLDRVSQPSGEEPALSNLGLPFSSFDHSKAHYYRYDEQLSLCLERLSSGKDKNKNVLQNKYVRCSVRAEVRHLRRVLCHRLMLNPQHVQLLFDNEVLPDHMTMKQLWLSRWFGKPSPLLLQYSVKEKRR
The assay is described as follows: co-IP; IP of PCGF1 and immunoblot, with or without 250 Units Benzonase per mg protein (MgCl2 up to 1.5 mM); 0.1% NP-40 lysis buffer (250 mM NaCl), washes with 350 mM NaCl. (A western blot detects proteins with antibodies after separation by electrophoresis.)

Protein sequences, listed by entry. Tags and fused reporters are not part of them. Lines headed by an entry give the natural chain unless they say otherwise; changes in a name come on top.
UniProt Q80U70: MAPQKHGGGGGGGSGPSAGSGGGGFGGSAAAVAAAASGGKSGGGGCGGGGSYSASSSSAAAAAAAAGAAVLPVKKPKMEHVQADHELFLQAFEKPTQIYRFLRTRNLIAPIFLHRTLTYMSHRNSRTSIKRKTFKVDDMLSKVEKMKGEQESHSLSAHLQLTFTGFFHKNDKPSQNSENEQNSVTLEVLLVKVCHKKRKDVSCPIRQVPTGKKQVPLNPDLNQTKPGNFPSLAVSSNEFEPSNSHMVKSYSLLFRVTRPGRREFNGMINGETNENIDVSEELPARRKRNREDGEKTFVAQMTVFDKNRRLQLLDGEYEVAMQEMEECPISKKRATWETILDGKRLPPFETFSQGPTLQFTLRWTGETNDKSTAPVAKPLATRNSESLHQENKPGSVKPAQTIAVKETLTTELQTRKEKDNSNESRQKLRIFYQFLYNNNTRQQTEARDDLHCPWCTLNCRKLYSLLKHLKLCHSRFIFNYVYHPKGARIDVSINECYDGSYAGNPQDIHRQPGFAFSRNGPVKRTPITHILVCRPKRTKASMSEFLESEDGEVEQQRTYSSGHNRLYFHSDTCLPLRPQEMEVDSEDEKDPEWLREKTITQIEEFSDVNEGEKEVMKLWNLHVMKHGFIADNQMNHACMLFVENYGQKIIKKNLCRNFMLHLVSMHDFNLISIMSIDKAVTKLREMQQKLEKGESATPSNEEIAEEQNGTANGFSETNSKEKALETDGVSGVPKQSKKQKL
UniProt P17918: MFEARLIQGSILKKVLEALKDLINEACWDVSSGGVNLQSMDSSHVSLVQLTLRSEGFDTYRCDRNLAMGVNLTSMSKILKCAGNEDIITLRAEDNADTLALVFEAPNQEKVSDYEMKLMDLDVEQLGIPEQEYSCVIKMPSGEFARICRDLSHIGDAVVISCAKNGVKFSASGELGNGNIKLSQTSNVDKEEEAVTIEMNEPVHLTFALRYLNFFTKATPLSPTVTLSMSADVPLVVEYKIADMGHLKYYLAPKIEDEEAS
UniProt Q3TKT4: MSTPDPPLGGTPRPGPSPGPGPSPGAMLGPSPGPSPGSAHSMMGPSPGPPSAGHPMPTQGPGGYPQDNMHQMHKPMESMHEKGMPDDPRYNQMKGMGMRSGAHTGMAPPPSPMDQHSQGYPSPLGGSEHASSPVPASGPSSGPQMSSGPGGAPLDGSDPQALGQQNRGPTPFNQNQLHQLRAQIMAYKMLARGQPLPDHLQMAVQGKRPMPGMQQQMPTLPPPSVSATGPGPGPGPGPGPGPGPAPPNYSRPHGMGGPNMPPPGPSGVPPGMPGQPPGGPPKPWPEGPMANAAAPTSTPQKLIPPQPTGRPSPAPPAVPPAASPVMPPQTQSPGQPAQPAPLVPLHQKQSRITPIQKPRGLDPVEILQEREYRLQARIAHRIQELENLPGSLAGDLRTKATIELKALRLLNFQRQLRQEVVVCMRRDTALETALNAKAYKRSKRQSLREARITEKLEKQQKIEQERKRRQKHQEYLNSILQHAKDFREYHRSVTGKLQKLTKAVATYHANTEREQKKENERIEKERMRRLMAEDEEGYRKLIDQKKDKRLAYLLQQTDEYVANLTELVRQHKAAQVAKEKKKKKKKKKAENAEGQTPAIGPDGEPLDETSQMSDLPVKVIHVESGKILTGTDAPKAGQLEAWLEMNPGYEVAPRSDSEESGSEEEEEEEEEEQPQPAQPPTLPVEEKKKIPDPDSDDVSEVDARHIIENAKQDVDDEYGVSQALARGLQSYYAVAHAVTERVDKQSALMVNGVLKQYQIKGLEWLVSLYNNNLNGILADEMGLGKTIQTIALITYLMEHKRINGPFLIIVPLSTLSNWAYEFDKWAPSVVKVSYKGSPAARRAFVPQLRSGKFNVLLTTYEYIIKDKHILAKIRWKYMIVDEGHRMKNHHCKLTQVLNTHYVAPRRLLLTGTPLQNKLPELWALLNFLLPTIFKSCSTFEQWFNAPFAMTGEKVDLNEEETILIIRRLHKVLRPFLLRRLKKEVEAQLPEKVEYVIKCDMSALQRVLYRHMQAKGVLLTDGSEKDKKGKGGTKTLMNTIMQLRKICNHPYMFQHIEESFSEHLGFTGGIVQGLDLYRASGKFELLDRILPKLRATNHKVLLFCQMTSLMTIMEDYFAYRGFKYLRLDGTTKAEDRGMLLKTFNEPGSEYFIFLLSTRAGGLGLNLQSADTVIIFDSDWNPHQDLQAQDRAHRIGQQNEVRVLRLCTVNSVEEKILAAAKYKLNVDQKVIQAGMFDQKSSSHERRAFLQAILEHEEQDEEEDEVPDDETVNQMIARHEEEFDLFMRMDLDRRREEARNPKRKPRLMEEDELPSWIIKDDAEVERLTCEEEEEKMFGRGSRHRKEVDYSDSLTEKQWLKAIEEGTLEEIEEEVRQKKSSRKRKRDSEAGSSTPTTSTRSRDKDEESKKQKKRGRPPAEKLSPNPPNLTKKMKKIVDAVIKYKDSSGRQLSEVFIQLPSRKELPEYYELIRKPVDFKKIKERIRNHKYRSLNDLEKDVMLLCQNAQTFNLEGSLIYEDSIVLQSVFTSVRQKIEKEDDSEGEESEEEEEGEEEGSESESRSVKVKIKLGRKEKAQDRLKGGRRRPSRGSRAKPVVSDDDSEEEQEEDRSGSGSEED
UniProt Q9WTM5: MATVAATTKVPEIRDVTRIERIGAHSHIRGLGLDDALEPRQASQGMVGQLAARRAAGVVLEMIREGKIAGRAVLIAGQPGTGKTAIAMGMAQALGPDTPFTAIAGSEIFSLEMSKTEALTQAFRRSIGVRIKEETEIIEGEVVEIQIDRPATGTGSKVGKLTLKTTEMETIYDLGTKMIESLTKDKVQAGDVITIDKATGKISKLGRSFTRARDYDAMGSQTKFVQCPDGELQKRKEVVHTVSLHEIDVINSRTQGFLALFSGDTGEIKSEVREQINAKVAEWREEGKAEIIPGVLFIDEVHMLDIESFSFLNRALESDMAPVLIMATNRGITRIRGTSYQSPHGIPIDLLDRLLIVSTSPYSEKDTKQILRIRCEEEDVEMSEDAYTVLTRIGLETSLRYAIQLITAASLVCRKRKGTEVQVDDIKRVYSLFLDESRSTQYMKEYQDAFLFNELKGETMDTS
UniProt P97310: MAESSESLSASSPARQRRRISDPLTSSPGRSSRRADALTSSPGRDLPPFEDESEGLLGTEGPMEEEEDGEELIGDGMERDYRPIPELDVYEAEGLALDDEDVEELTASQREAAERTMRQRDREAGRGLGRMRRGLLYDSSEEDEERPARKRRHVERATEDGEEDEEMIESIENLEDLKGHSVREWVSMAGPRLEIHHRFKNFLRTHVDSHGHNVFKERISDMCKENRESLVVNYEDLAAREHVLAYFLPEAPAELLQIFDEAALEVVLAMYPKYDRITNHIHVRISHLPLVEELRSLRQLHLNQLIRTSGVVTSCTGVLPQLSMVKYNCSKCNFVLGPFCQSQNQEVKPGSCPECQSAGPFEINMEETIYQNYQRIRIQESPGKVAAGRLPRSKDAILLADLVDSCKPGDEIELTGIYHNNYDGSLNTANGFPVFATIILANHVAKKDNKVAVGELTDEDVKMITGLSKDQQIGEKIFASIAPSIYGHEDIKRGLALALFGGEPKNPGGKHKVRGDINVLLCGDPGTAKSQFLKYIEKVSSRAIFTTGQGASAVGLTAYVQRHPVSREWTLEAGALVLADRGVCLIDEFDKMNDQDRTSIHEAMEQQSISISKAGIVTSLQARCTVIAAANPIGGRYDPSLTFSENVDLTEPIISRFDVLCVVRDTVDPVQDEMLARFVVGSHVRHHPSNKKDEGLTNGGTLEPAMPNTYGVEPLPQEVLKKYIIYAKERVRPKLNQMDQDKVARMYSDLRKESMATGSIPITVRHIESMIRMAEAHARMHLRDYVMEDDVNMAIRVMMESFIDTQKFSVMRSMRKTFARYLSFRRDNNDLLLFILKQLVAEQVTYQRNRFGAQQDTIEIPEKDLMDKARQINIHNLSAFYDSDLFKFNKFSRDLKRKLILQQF
UniProt P97822: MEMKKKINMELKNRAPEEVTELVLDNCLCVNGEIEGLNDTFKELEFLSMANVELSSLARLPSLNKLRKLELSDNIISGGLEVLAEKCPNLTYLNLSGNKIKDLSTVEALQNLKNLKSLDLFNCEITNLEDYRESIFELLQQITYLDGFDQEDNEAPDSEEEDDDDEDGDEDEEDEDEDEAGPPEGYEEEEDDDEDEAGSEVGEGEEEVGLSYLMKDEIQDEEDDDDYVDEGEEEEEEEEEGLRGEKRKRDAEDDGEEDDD

The target in assay [2] is T2, endogenous TY1-tagged PCGF1 (mouse) (UniProt Q8R023).
T2 sequence: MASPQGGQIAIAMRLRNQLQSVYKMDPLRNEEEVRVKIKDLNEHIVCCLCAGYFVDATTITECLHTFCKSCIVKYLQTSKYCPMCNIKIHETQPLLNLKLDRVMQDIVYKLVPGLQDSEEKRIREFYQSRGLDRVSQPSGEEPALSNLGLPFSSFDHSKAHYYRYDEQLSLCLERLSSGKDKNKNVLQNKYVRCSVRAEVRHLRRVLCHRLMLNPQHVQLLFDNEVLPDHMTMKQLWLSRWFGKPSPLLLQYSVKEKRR
The assay is described as follows: co-IP; pull-down experiments with endogenous TY1-tagged PCGF1 in IdHPCs; read-out not given.

The target in assay [3] is SUZ12 (mouse (endogenous in IdHPCs)) (UniProt Q80U70). The experiment in a line: co-IP; IP of SUZ12 and immunoblot for AEBP2, JARID2 or PALI1, control and Pcgf1-KO IdHPCs; 0.1% NP-40 lysis buffer (250 mM NaCl), washes with 350 mM NaCl.

These are yes or no findings as the source states them, for the method shown. In cells and extracts the contact can be indirect. Some results given as binding are weak or reduced against the parent protein; the word gives no strength. For some of these results: Sequences can lack the tags named with a protein.

On to PCNA (from UniProt P17918 1-261), for which, in assay [1], the binding entry is “binds”.
With “BRG1 (encoded by Smarca4) (from UniProt Q3TKT4 1-1613)”, the binding entry in assay [1] is “binds”.
Regarding RUVBL2 (from UniProt Q9WTM5 1-463), the binding entry in assay [2] is reported as “binds”.
Still for that read-out and setting: in the case of “DNA helicase complexes (MCM2-7) (from UniProt P97310 1-904; P25206 1-812; P49717 1-862; P49718 1-734; P97311 1-821; Q61881 1-719)” it was “binds”.
On to ANP32E (from UniProt P97822 1-260), for which the binding result in assay [2] is reported as “binds”.

B1: AEBP2 (protein, UniProt Q9Z248 1-504)
chain: MAAALADMADLEELSRLSPLSPGSPGPAARGRAEPPEEEEEEDDEEAEAEAVAALLLNGGAGGGAGGGEAETMSEPSPESASQAGGDEDEDEEDDEDEGSSSGGAEEESSAESLVGSSSGGCSGDETRSLSPGAASSSSGDGDGKEGLEEPKGPRGGPGGPGSSGGGSSSSSVVSSGGDEGYGTGGGGSSATSGGRRGSLEMSSDGEPLSRMDSEDSISSTLMDIDSTISSGRSTPAMMNGQGSTTASSKHIAYNCCWDQCQACFNSSPDLADHIRSIHVDGQRGGVFVCLWKGCKVYNTPSTSQSWLQRHMLTHSGDKPFKCVVGGCNASFASQGGLARHVPTHFSQQNSSKVSSQPKAKEESPSKAGMNKRRKLKNKRRRSLPRPHDFFDAQTLDAIRHRAICFNLSAHIESLGKGHSVVFHSTVIAKRKEESGKIKLLLHWMPEDILPDVWVNESERHQLKTKVVHLSKLPKDTALLLDPNIYRTMPQKRLKRFDILNFPR
B1: the binding result in assay [3] is given as “binds”.

B2: JARID2 (protein, UniProt Q62315 1-1234)
chain: MSKERPKRNIIQKKYDDSDGIPWSEERVVRKVLYLSLKEFKNAQKRQHGEGLAGSLKAVNGLLGNAQAKALGPASEQSENEKDDASQVSSTSNDVSSSDFEEGPSRKRPRLQAQRKFAQSQPNSPSTTPVKIVEPLLPPPATQISDLSKRKPKTEDFLTFLCLRGSPALPNSMVYFGSSQDEEDVEEEDDETEDVKATTNNASSSCQSTPRKGKTHKHVHNGHVFNGSSRSAREKEPAHKHRSKEATPGKEKHSEPRADSRREQASGAQPTAASAAASSAKGLAANHQPPPSHRSAQDLRKQVSKVNGVTRMSSLGAGTNSAKKIREVRPSPSKTVKYTATVTKGTVTYTKAKRELVKETKPNHHKPSSAVNHTISGKTESSNAKTRKQVLSLGGASKSTGPAASGLKASSRLNPKSCTKEVGGRQLREGLRNSKRRLEEAQQVDKPQSPPKKMKGVAGNAEAPGKKASAASGEKSLLNGHVKKEVPERSLERNRPKRAAAGKNMLGKQAHGKTEGTPCENRSTSQPESSHKPHDPQGKPEKGSGKSGWAAMDEIPVLRPSAKEFHDPLIYIESVRAQVEKYGMCRVIPPPDWRPECKLNDEMRFVTQIQHIHKLGRRWGPNVQRLACIKKHLRSQGITMDELPLIGGCELDLACFFRLINEMGGMQQVTDLKKWNKLADMLRIPKTAQDRLAKLQEAYCQYLLSYDSLSPEEHRRLEKEVLMEKEILEKRKGPLEGHTESDHHKFHSLPRFEPKNGLVHGVTPRNGFRSKLKEVGRAPLKTGRRRLFAQEKEVVKEEEEDKGVLNDFHKCIYKGRSVSLTTFYRTARNIMNMCFSKEPAPAEIEQEYWRLVEEKDCHVAVHCGKVDTNTHGSGFPVGKSEPFSRHGWNLTVLPNNTGSILRHLGAVPGVTIPWLNIGMVFSTSCWSRDQNHLPYIDYLHTGADCIWYCIPAEEENKLEDVVHTLLQGNGTPGLQMLESNVMISPEVLCKKGIKVHRTVQQSGQFVVCFPGSFVSKVCCGYNVSETVHFATTQWTSMGFETAKEMKRRHIAKPFSMEKLLYQIAQAEAKKENGPTLSTISALLDELRDTELRQRRLLFEAGLHSSARYGSHDGNSTVADGKKKPRKWLQLETSERRCQICQHLCYLSMVVQENENVVFCLECALRHVEKQKSCRGLKLMYRYDEEQIISLVNQICGKVSGKHGGIENCLNKPTPKRGPRKRATVDVPPSRLPSS
For the molecule B2, in assay [3], the binding entry was “binds”.

The values above are taken from paper PMC9705430.
